Laboratory results from patent US20020155533A1 (Takeda / Millennium, published 2002).
Results are given in words; binding and its absence hold for the method and conditions named. Some results given as binding are weak or reduced against the parent protein; the word gives no strength.

Sequences of proteins named here, by UniProt entry; tags and fusion partners are left off. A change or cut given only in a name is not applied to a line headed by its entry. Residues count along the entry.
UniProt Q29627: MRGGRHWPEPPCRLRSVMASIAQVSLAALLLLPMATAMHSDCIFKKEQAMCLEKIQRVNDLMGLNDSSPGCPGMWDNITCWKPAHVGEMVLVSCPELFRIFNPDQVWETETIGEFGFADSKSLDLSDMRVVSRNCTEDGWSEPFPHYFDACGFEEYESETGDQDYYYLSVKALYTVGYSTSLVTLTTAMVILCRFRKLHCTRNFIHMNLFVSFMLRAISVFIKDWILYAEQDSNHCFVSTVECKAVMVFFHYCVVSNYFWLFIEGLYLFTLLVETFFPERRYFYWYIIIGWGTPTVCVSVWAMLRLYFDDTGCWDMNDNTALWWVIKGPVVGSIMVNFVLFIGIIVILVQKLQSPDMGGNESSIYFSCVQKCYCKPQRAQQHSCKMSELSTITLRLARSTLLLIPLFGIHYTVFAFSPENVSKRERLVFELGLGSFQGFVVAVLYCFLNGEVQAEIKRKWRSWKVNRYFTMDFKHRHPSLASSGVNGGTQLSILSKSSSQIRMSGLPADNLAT
UniProt P01282, residues 125-152: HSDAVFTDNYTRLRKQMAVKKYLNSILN

Target: bovine PACAP receptor protein Type I-A encoded by pBPR-T, expressed in CHO cells (bovine) (UniProt Q29627)
Experiment: competition with 100 pM [125I]-PACAP27, membrane fraction of pBPR-T CHO transformants (FIG. 35)

With “VIP (vasoactive intestinal peptide) (from UniProt P01282 125-152)” the binding was “binds”.
